Reference: patent US9259006B2, “Antimicrobial compositions and methods of use thereof” (priority 2008, dated 2016)

Assay: HPLC analysis of residual amounts of components on treated produce (Table 9)
Details: after treatment per Table 8, flow through wash with 1 liter distilled water for 60 seconds

Row | Compound | Residual amounts of component (Iceberg Lettuce) [ppm] | Residual amounts of component (Spinach leaf) [ppm] | Residual amounts of component (Spring Mix) [ppm]
1 | CC(O)CO (stereo not drawn) [Propylene Glycol] | 18 | 25 | 13
2 | OO [Hydrogen Peroxide] | 0 | 0 | 0
3 | OCl [Hypochlorous Acid “CL2”] | 0.001 | 0.001 | 0.002
4 | O=P(O)(O)O [Phosphoric Acid] | 5 | 8 | 9
